{
  "source": "paper PMC9844640",
  "molecules": {"B1": {"name": "TPD52 (endogenous) (protein, UniProt P55327 1-224)", "chain": "MDCREMDLYEDYQSPFDFDAGVNKSYLYLSPSGNSSPPGSPTLQKFGLLRTDPVPEEGEDVAATISATETLSEEEQEELRRELAKVEEEIQTLSQVLAAKEKHLAEIKRKLGINSLQELKQNIAKGWQDVTATSAYKKTSETLSQAGQKASAAFSSVGSVITKKLEDVKNSPTFKSFEEKVENLKSKVGGTKPAGGDFGEVLNSAANASATTTEPLPEKTQESL"}, "B2": {"name": "TPD52 (stably transfected in MDA‐MB‐231 cells) (protein, UniProt P55327 1-224)", "chain": "B1 chain"}},
  "key": {"GST‐TPD52": {"molecular_target": "T1, GST‐TPD52 (UniProt P55327)", "T1 sequence": "B1 chain", "test": "pull-down; GST pull-down in vitro: GST-TPD52 with His-tagged AMPK subunits or AMPKα1 kinase domain, all purified from E. coli (Figure 1B, 1D); both purified"}, "[1]": {"molecular_target": "AMPKα (endogenous) (human (endogenous in 293T, SK-BR-3 and MDA-MB-231))", "test": "co-IP; SK-BR-3 cells, untreated or treated for 24 h with AICAR, metformin, amino acid shortage or glucose deprivation"}, "[2]": {"molecular_target": "AMPKα (endogenous) (human (endogenous in 293T, SK-BR-3 and MDA-MB-231))", "test": "co-IP; endogenous immunoprecipitation in 293T cells, NETN buffer, antibody with Protein A/G beads; irrelevant IgG as control"}, "[3]": {"molecular_target": "AMPKα (endogenous) (human (endogenous in 293T, SK-BR-3 and MDA-MB-231))", "test": "co-IP; MDA-MB-231 cells, control or stably transfected with TPD52; LKB1-AMPKα interaction examined"}},
  "note": "These are yes or no findings as the source states them, for the method shown. Binding calls can cover weak binding; strength is not graded here. For some of these results: Where a sequence is shown, tags or fusion partners need not be part of it. For some of these results: In cells and extracts the contact can be indirect.",
  "data": [
    {"molecule": "His‐tagged AMPKα1 kinase domain (AMPKαE) (domain or fragment)", "values": [
      {"measurement": "binding", "setting": "GST‐TPD52", "value": "binds"}
    ]},
    {"molecule": "B1", "values": [
      {"measurement": "binding", "setting": "[1]", "value": "binds"},
      {"measurement": "binding", "setting": "[2]", "value": "binds"}
    ]},
    {"molecule": "B2", "values": [
      {"measurement": "binding", "setting": "[3]", "value": "binds"}
    ]}
  ]
}
